This is one part of the list. These are further read-outs of the screen, such as a control signal, another cell line or another target. No call is given for them. Most of these compounds were active or inconclusive in the main read-out, so they are no random draw. Words in brackets tell the shape of the fitted curve; partial curves, single points and poor fits give uncertain potencies.

These results are taken from PubChem BioAssay AID2685 (National Center for Advancing Translational Sciences (NCATS), 2010).

The test can be described thus: qHTS Assay for Lipid Storage Modulators in Drosophila S3 Cells.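 As to cell number change: cells counted by Cell Tracker Red CMTPX staining in the red channel.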 The following applies: BODIPY lipid droplet fluorescence, 18-24 h; for cell number change: measured here: cell count max response, cells fed with added oleic acid. The essentials:
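Drosophila S3 cells got compounds at several concentrations plus oleic acid (400 uM solution). Laser-scanning cytometry with 488 nm excitation read lipid droplets at 500-530 nm and cells at 575-640 nm. Percent activity was relative to 20 uM Triacsin C.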
On the technique in general: qHTS replaces the single test concentration by a dilution series.

The mark [1] stands for this setting: measured here: cell number channel AC50, cells fed with added oleic acid.
Setting [2] is: measured here: lipid fluorescence (Fed channel) AC50, cells fed with added oleic acid.

By AC50 is commonly meant the concentration giving half of the maximal activity seen. As for `CCN1CCN(C(=O)COc2ccc3c(c2)C(=O)CC2(CCN(C(C)=O)CC2)O3)CC1`, the cell number change is -99.9%. The AC50 under setting [1] was 3.26 µM [falling, partial curve].

In the case of `Cn1c(N2CCNCC2)nc2ccccc21`, the cell number change is -7.51%. Further, the AC50 under setting [1] was 5.8 µM [falling, partial curve, poor fit]. The AC50 under setting [2] was 0.092 µM [falling, full curve, poor fit]. Turning to `COCCNC(=O)c1ccc(N2CC3CC(C2)c2cccc(=O)n2C3)c([N+](=O)[O-])c1` (stereo not given), the cell number change was -4.75%. Under setting [2], the AC50 is 6.51 µM [falling, single point]. With `Cc1ccc(S(=O)(=O)N2CCC(C(=O)N3CCC4(CC3)OCCO4)CC2)cc1`, the cell number change was -32.1%. Moreover, the AC50 under setting [1] was 0.517 µM [falling, partial curve, poor fit].

`OC1(c2ccc(F)cc2)CC2CCC(C1)N2Cc1nnnn1C1CCCC1` (stereo not given): the cell number change turned out to be 38.5%. Moreover, the half-maximal activity concentration (AC50) under setting [1] is 29.1 µM [rising, single point]. Moreover, under setting [2], the AC50 is 29.1 µM [rising, single point]. As for `CCCN1C2CCCC1CC(NC(C)=O)C2` (stereo not given), the cell number change was -0.429%. In addition, the AC50 under setting [2] was 0.116 µM [falling, full curve, poor fit]. For `O=C(N/N=C/c1c(O)n(C2CC2)c(=S)[nH]c1=O)c1ccccc1Cl`, the cell number change stood at 12.8%. For the same compound, the AC50 under setting [2] was 16.4 µM [rising, single point]. Turning to `COc1cccc(OC)c1C(=O)NC(=S)N1C[C@H]2C[C@H](C1)c1cccc(=O)n1C2`, the cell number change was 29.4%. As to `c1ccc(CCNC2CCCCCC2)cc1`, the cell number change was determined as 22%. In addition, the AC50 under setting [2] was 6.51 µM [falling, single point]. For the compound `COC(=O)c1cn(C(=O)c2cccc3ccccc23)c2ccccc12`, the cell number change is 39.7%. For the same compound, the AC50 under setting [1] was 29.1 µM [rising, single point].

Regarding `COC(=O)C1=C(c2ccc(OC)c(OC)c2)C[C@@H]2CC[C@H]1N2C(=O)NCCc1ccccc1`, the cell number change worked out at 15.6%. Further, under setting [2], the AC50 is 32.6 µM [rising, single point]. Consider `CC1CCc2cc(F)cc3c(=O)c(C(=O)O)cn1c23` (stereo not given), for which the AC50 under setting [1] was 29.1 µM [falling, single point]. For the compound `Cc1ccc(S(=O)(=O)Nc2cc(C(=O)N3CCC4(CC3)OCCO4)ccc2N2CCCCC2)cc1`, the cell number change was 24.9%.

`CC(C)OP(=O)(c1ccc(N(C)C)cc1)C(O)c1ccc(Br)cc1` (stereo not given): the AC50 under setting [1] was 0.58 µM [rising, full curve].

`COC(=O)C(O)(c1ccc(NC(=S)NC(=O)c2ccc(Cl)cc2Cl)cc1)C(F)(F)F` (stereo not given): the cell number change was -51.3%. The AC50 under setting [1] is 6.51 µM [rising, partial curve, poor fit]. Besides, under setting [2], the AC50 was 6.51 µM [rising, partial curve, poor fit]. For the compound `Cc1nc2ccc(P(=O)(O)O)cc2s1`, the cell number change was -16.9%. For the same compound, the AC50 under setting [2] is 5.17 µM [falling, full curve]. As to `CC1=NN(c2ccccc2)C(=O)/C1=C/c1c(O)[nH]c(=S)[nH]c1=O`, the cell number change stood at 5.72%. Take `O=c1oc2ccccc2c(O)c1[C@H]1c2ccc(O)cc2Oc2c1c(=O)oc1ccccc21`: the cell number change was -4.62%. In addition, the AC50 under setting [2] was 29.1 µM [rising, single point]. As to `CCOc1ccccc1CNS(=O)(=O)c1ccc2c(c1)oc(=O)n2C`, under setting [1], the AC50 is 0.461 µM [falling, single point].

Consider `Cc1ccc(/C=C2\C(=O)NC(=S)N(c3ccccc3F)C2=O)s1`, for which the cell number change is -29.2%. Under setting [2], the AC50 is 16.4 µM [falling, single point].

Take `Cc1ccc(S(=O)(=O)NCCC(=O)Nc2ccc(Cl)cc2C(=O)c2ccccc2)cc1`: the cell number change was -16.1%. Also, the AC50 under setting [2] is 25.9 µM [falling, single point].

Turning to `O=[N+]([O-])c1cnc[nH]1`, the cell number change is -13.9%. For `COc1ccc(C(=O)O/N=C(/C(N)=O)P(=O)(OC(C)C)OC(C)C)cc1`, the cell number change was -30.8%. Further, under setting [1], the AC50 was 11.6 µM [falling, partial curve]. In addition, the AC50 under setting [2] was 10.3 µM [falling, partial curve]. Consider `Cc1ccc2[nH]c(C)c(CCNCc3ccco3)c2c1`, for which the cell number change is -19.4%. On to `CC(Cc1ccccc1Sc1ccccc1)N(C)C` (stereo not given), for which the cell number change is 48.6%. For the same compound, under setting [1], the AC50 is 0.58 µM [rising, full curve]. Moreover, the AC50 under setting [2] was 6.51 µM [rising, partial curve]. Turning to `COc1ccccc1OCC#CCN1CCCCCC1`, the cell number change was -36.5%. `COc1cc2c(cc1/C=C/[N+](=O)[O-])OCO2`: the cell number change is -41%. The AC50 under setting [1] is 18.4 µM [falling, single point]. Moreover, the concentration at half-maximal activity (AC50) under setting [2] was 16.4 µM [falling, single point]. `O=c1c2ccccc2nc(/C=C/c2ccc([N+](=O)[O-])o2)n1-c1ccc(O)cc1`: the cell number change came out at 3.01%. For the same compound, under setting [1], the AC50 was 0.103 µM [falling, full curve, poor fit]. With `COc1ccccc1N1C(=O)NC(=O)/C(=C/c2ccc3c(c2)Cc2ccccc2-3)C1=O`, the cell number change is -50%. The AC50 under setting [1] was 3.26 µM [falling, full curve]. The AC50 under setting [2] is 23.1 µM [rising, single point]. Regarding `COC(=O)C1=C(N)OC(C)=C(C(C)=O)C12C(=O)N(C)c1ccccc12` (stereo not given), the cell number change was -2.07%. `CCN(CC)C(=O)N[C@H]1C[C@@H]2c3cccc4[nH]cc(c34)C[C@H]2N(C)C1`: the cell number change was found to be 15.7%. Moreover, the AC50 under setting [2] was 9.2 µM [rising, partial curve, poor fit]. Take `CN1/C(=C\C=C\C2=[N+](C)c3ccc4ccccc4c3C2(C)C)C(C)(C)c2ccccc21`: the cell number change is -98.6%. Besides, the AC50 under setting [1] is 10.3 µM [falling, partial curve]. Moreover, under setting [2], the AC50 is 0.291 µM [falling, full curve, poor fit].

Regarding `CCc1c(C)nc(N)nc1N1N=C1SCCOc1ccccc1`, the cell number change worked out at 0.308%. Regarding `NCCc1ccc(OCc2ccccc2)c(OCc2ccccc2)c1`, the cell number change is -75.5%. Further, the AC50 under setting [1] was 16.4 µM [falling, partial curve]. In the case of `O=C(/C=C/c1ccccc1)NCCc1cnc[nH]1`, the cell number change is -26.6%. For the same compound, the AC50 under setting [2] was 7.31 µM [falling, partial curve, poor fit]. As for `CCC(c1ccc(C)cc1)N1C(=O)C2C3CCC(O3)C2C1=O` (stereo not given), the cell number change was 8.63%. Further, the concentration at half-maximal activity (AC50) under setting [2] was 4.11 µM [rising, single point]. Regarding `CCn1c(=O)n(CC(=O)N2CCC3(CC2)OCCO3)c(=O)c2ccccc21`, the cell number change was -5.13%. Moreover, the AC50 under setting [2] was 29.1 µM [falling, single point]. `O=c1cccc2n1CC1CC2CN(S(=O)(=O)c2ccc(F)cc2)C1` (stereo not given): the cell number change was found to be 89.2%. Regarding `CCOc1ccc(NC(=O)C2C3c4ccccc4C(c4ccccc43)C2C(=O)O)cc1` (stereo not given), the cell number change was 17.4%. The AC50 under setting [2] is 0.731 µM [rising, full curve, poor fit].

Turning to `O=C1/C(=C\c2ccccc2)C2OCC=C3CN4CCC56c7ccccc7N1C5C2C3CC46` (stereo not given), the cell number change was -0.525%. The AC50 under setting [2] is 6.51 µM [rising, full curve]. For the compound `C/C(=N\NC(=O)c1ccccc1)c1c(O)n(C2CCCCC2)c(=O)[nH]c1=O`, the AC50 under setting [2] was 0.00517 µM [rising, full curve, poor fit].

On to `O=c1[nH]c(=S)[nH]c(O)c1N=Nc1ccc(OC(F)F)cc1`, for which the cell number change worked out at 1.9%. Turning to `O=C(O)c1ccc2c(c1)C1C(Cl)C(Sc3ccccc3[N+](=O)[O-])CC1C(c1cccc([N+](=O)[O-])c1)N2` (stereo not given), the cell number change is -31.7%. Moreover, under setting [1], the AC50 is 3.66 µM [falling, full curve, poor fit]. `CC1(C)C(c2ccccc2)=NC(c2cccnc2)=[N+]1[O-]`: the cell number change amounted to 24.7%. Besides, the AC50 under setting [1] is 0.326 µM [rising, full curve, poor fit]. For the same compound, the AC50 under setting [2] is 1.16 µM [rising, single point]. Turning to `CCOc1ccccc1OCC(=O)Nc1ccc(Cl)cc1C(=O)c1ccccc1`, the cell number change turned out to be 6.9%. The half-maximal activity concentration (AC50) under setting [1] was 1.16 µM [rising, partial curve, poor fit]. Besides, under setting [2], the half-maximal activity concentration (AC50) is 1.84 µM [rising, partial curve, poor fit].

In the case of `C=CCn1c(O)c(C=NCCN2CCNCC2)c(=O)[nH]c1=O`, the cell number change was -56.5%. Moreover, the AC50 under setting [1] is 29.1 µM [falling, single point]. Further, under setting [2], the AC50 is 0.82 µM [falling, partial curve]. On to `CC12CN3CC(c4ccccc4)(CN(C1)C31CCCCC1)C2=O`, for which the AC50 under setting [2] was 0.651 µM [falling, full curve, poor fit].

As to `COc1ccccc1OP(=O)(Nc1ccc(Br)cc1)Oc1ccccc1OC`, the cell number change is -23.6%. The AC50 under setting [2] is 16.4 µM [falling, single point]. On to `COC(=O)C1=C(c2ccc(Cl)c(C(F)(F)F)c2)C[C@@H]2CC[C@H]1N2C(=O)N1CCOCC1`, for which the cell number change stood at 11.1%. Also, the AC50 under setting [2] is 0.00461 µM [rising, full curve, poor fit]. Turning to `CCOC(=O)c1c(/N=C/C2C(=O)NC(=O)NC2=O)sc2c1CCC2`, the cell number change turned out to be 23.1%. For the same compound, the AC50 under setting [1] was 0.092 µM [rising, full curve, poor fit]. Consider `CCC1(CCCC(=O)c2ccc(F)cc2)C(=O)NC(=S)NC1=O`, for which the cell number change is 2.69%. The AC50 under setting [2] was 0.731 µM [falling, single point].

In the case of `Cc1cc(C(=O)C[N+]23CCN(CC2)CC3)c(C)n1-c1ccc(Br)cc1`, the cell number change was -24.7%. Besides, the half-maximal activity concentration (AC50) under setting [2] was 1.64 µM [falling, partial curve]. As for `CCN1CCN(c2ccc(N)c(C)c2)CC1`, the cell number change was found to be 40.3%. Under setting [1], the AC50 was 29.1 µM [rising, single point]. On to `CCCNC(=O)c1c(N)n(Cc2ccco2)c2nc3ccccc3nc12`, for which the cell number change is -15.5%. For the same compound, the AC50 under setting [2] was 3.66 µM [rising, full curve]. On to `CC(=O)Nc1ccc(OC(=O)N(C)c2ccc(C)cc2)cc1`, for which the cell number change was -8.81%. As to `CC(=O)O[C@@]12CO[C@@H]1C[C@H](OC1OCC(O)C(O)C1O)[C@@]1(C)C(=O)[C@H](O)C3=C(C)[C@@H](OC(=O)[C@H](O)[C@@H](NC(=O)c4ccccc4)c4ccccc4)C[C@@](O)([C@@H](OC(=O)c4ccccc4)C12)C3(C)C` (stereo not given in full), the cell number change is -12.9%. Consider `Cc1cc(C(=O)Nc2ccc3c(c2)OCCO3)nn1C(C)(C)C`, for which the cell number change was 22.8%. For the same compound, the AC50 under setting [2] is 13 µM [rising, partial curve]. In the case of `COc1cc(Cc2ccc(N)c(OC)c2)ccc1N`, the AC50 under setting [1] was 4.61 µM [rising, partial curve].

For `O=P(O)(CN1CCCCC1)CN1CCCCC1`, under setting [1], the AC50 was 25.9 µM [falling, partial curve].
